Literature values in patent US20050009067A1, “Expression profile of pancreatic cancer” (priority 2003, published 2005).
For at least one compound, name, drawing or mass did not settle the structure.

System: S100 proteins
Conditions: Okada et al. 2002; cited from earlier work

O=C(O)c1cc(=O)c2c(OCC(O)COc3cccc4oc(C(=O)O)cc(=O)c34)cccc2o1 [cromolyn]
interaction with S100 proteins: interact with S100 proteins
